Measurements reported in PubChem BioAssay AID652243 (Drosophila RNAi Screening Center, 2013).

Test: 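Fly regulators of androgen-dependent reporter output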 (primary screen)
Cells: Drosophila S2R+ cells
Reagents: long dsRNA against Drosophila genes
Duration: 72 h (48 h, then 24 h hormone)
Treatment: synthetic androgen R1881 at 10 nM for 24 h
Measurement: 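Per-well raw luminescence of the androgen-driven firefly reporter and of the Renilla control, two replicates each, without normalisation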
Direction: firefly reporter light: higher = more light from androgen-responsive reporter; Renilla control light: higher = more constitutive control signal (cell number, transfection)
Rule for the call: 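Hit when the log firefly-to-Renilla ratio dropped or increased by a fixed fold versus the mean of GFP or LacZ controls across duplicate plates; lowering cut given as 1.5 and as 3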
Calls: active = hit: reporter lowered or raised; inactive = no hit
The deposit covers about 24,000 reagents; shown is an unselected part of those that have a named target and a result. Of all reagents, 246 (1%) were called active. 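Plates not normalised; calls are printed but the firefly/Renilla ratio behind them is not deposited; fold cut for lowering reported inconsistently.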 The raw values are shown without normalisation. The numbers tell different reagents against one gene apart. A plus sign joins genes that one reagent is predicted to hit. No sequences are given here. Not stated in the record: the amount of reagent.

gene knocked down	dsRNA no.	firefly reporter light, replicate 1	firefly reporter light, replicate 2	Renilla control light, replicate 1	Renilla control light, replicate 2	Call
alpha-Est6	1	19285	10522	1.87e5	1.74e5	inactive
CG11109	1	52803	38643	4.43e5	2.18e5	inactive
mRpL32	1	2.80e5	2.03e5	2.19e6	2.57e6	inactive
alphaTub84D	1	40053	35712	1.90e6	1.69e6	inactive
alphaTub84D	2	6.66e5	7.81e5	8.29e5	5.78e5	inactive
alphaTub84D	3	6.85e5	6.44e5	1.83e6	1.38e6	inactive
CrzR	1	1.94e5	2.07e5	2.54e6	2.50e6	inactive
CrzR	2	1.59e5	1.59e5	1.91e6	1.94e6	inactive
CG34117	1	4.68e5	4.82e5	1.37e6	1.22e6	inactive
ND-ASHI	1	3.01e5	3.32e5	3.04e6	3.73e6	inactive
ND-ASHI	2	1.90e5	1.88e5	5.34e5	6.61e5	inactive
CG7744	1	1.41e6	8.11e5	1.95e6	1.70e6	inactive
MCTS1	1	98266	88156	1.15e6	6.77e5	inactive
sni	1	1.05e5	1.04e5	7.05e5	9.47e5	inactive
sni	2	4.09e5	2.92e5	9.52e5	5.64e5	inactive
sni	3	5.92e5	4.94e5	1.87e6	1.83e6	inactive
CG11920	1	92043	59781	6.89e5	4.87e5	inactive
Rcd7	1	2.75e5	2.29e5	2.62e6	2.75e6	inactive
CG42585 + CG31835	1	6.13e5	5.84e5	1.37e6	1.34e6	inactive
HDAC3	1	40978	54335	3.20e5	3.47e5	inactive
POSH	1	1.22e5	1.28e5	2.86e6	2.86e6	inactive
Ir67a	1	53305	2.09e5	1.77e6	1.52e6	inactive
CG33298	1	82600	96471	1.16e6	9.21e5	inactive
CG33298	2	1.17e6	8.59e5	2.37e6	1.84e6	inactive
Pburs	1	1.44e5	1.33e5	1.87e6	1.57e6	inactive
CG14839	1	7.55e5	5.98e5	2.39e6	1.37e6	inactive
CG14839	2	2.62e5	2.92e5	3.58e5	5.69e5	inactive
Rca1	1	1.17e5	1.17e5	1.28e6	1.36e6	inactive
trpl	1	2.33e5	1.61e5	1.82e6	1.36e6	inactive
trpl	2	7.10e5	9.64e5	1.94e6	2.65e6	inactive
trpl	3	1.95e5	2.22e5	4.29e5	4.56e5	inactive
CG34232	1	1.02e6	9.10e5	1.28e6	1.43e6	inactive
CG13725	1	4.05e5	4.33e5	1.81e6	2.59e6	inactive
esg	1	1.67e5	2.14e5	1.49e6	2.02e6	inactive
CG15480	1	2.04e5	2.33e5	2.23e6	1.91e6	inactive
CG15480	2	6.04e5	4.97e5	8.62e5	8.09e5	inactive
Wsck	1	2.18e5	1.15e5	1.72e5	2.21e5	inactive
Wsck	2	3.42e5	4.05e5	1.15e6	1.60e6	inactive
Wsck	3					inactive
CG11790	1	71537	52040	7.33e5	6.17e5	inactive
